The target of the experiment is T1, A. thaliana EDS1, full length, in pDEST-GBKT7 (BD) (A. thaliana) (UniProt Q9SU72).
T1 sequence: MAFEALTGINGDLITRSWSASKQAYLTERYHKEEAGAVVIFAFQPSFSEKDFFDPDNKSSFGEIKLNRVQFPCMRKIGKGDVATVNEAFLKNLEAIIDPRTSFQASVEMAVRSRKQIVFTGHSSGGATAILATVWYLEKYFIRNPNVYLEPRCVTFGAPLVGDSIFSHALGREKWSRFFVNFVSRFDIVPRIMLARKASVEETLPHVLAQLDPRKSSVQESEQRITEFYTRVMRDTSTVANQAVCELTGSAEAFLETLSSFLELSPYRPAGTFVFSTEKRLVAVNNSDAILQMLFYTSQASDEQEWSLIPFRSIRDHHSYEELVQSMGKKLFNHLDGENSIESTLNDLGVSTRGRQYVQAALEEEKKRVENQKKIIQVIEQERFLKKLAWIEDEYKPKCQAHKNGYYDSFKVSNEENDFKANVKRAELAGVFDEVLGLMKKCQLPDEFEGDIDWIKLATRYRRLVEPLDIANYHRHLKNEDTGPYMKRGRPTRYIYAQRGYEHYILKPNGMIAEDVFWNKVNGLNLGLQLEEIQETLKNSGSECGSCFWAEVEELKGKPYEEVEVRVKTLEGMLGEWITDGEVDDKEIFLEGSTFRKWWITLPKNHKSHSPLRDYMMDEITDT
The experiment in a line: two-hybrid.

Amino acid sequences for entries named in this document (tags omitted).
UniProt Q4F883: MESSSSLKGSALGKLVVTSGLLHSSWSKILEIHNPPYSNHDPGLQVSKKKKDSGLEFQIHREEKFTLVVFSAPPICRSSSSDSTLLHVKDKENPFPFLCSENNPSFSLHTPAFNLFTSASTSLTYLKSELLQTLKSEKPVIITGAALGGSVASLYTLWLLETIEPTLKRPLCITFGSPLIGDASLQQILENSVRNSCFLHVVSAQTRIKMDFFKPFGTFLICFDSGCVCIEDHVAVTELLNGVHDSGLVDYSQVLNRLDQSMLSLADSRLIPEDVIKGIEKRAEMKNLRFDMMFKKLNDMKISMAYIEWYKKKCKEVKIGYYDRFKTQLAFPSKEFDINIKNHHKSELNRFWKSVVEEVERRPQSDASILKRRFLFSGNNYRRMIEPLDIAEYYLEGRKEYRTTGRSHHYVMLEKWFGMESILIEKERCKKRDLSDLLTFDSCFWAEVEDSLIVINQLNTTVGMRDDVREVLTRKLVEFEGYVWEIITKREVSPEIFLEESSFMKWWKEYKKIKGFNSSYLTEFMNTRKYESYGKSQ

No constants are given. Whether binding was seen depends on the method and setting. Some binding calls cover weakened binding; strength is not graded here. Where a sequence is shown, tags or fusion partners need not be part of it.

In the case of “A. thaliana SAG101, full length, in pDEST-GADT7 (AD) (from UniProt Q4F883 1-537)”, the binding entry is recorded as “binds”.

B1: A. thaliana PAD4, full length, in pDEST-GADT7 (AD) (protein, UniProt Q9S745 1-541)
chain: MDDCRFETSELQASVMISTPLFTDSWSSCNTANCNGSIKIHDIAGITYVAIPAVSMIQLGNLVGLPVTGDVLFPGLSSDEPLPMVDAAILKLFLQLKIKEGLELELLGKKLVVITGHSTGGALAAFTALWLLSQSSPPSFRVFCITFGSPLLGNQSLSTSISRSRLAHNFCHVVSIHDLVPRSSNEQFWPFGTYLFCSDKGGVCLDNAGSVRLMFNILNTTATQNTEEHQRYGHYVFTLSHMFLKSRSFLGGSIPDNSYQAGVALAVEALGFSNDDTSGVLVKECIETATRIVRAPILRSAELANELASVLPARLEIQWYKDRCDASEEQLGYYDFFKRYSLKRDFKVNMSRIRLAKFWDTVIKMVETNELPFDFHLGKKWIYASQFYQLLAEPLDIANFYKNRDIKTGGHYLEGNRPKRYEVIDKWQKGVKVPEECVRSRYASTTQDTCFWAKLEQAKEWLDEARKESSDPQRRSLLREKIVPFESYANTLVTKKEVSLDVKAKNSSYSVWEANLKEFKCKMGYENEIEMVVDESDAMET
As for B1, the binding entry was “binds”.

The record behind these values is doi:10.1101/2024.11.20.624400.
